Some entries share one result that the patent states for a list of compounds. At least one compound was matched to its structure with a doubt left.
Test system: rat renal mesangial cells
Assay: cytokine-stimulated PGE2 formation in mesangial cells (ELISA)
Format: cell-based
Details: IL-1β (1 nM), FIG. 1

Compound | concentration giving maximal effects on IL-1β-induced PGE2 formation
CC/C=C\C/C=C\C/C=C\C/C=C\C/C=C\CCSCC(=O)C(F)(F)F [AVX002] | 3 to 10 µM
CC/C=C\C/C=C\C/C=C\C/C=C\CC/C=C/CSCC(=O)C(F)(F)F [AKH-217] | 3 to 10 µM
